Results are given in words; binding and its absence hold for the method and conditions named. Some results given as binding are weak or reduced against the parent protein; the word gives no strength.

The chains behind the UniProt entries cited, without tags or fusion partners. Where a name states a change or a piece, a line headed by the entry shows the natural chain unless it says otherwise. Residues count along the entry.
UniProt Q15116: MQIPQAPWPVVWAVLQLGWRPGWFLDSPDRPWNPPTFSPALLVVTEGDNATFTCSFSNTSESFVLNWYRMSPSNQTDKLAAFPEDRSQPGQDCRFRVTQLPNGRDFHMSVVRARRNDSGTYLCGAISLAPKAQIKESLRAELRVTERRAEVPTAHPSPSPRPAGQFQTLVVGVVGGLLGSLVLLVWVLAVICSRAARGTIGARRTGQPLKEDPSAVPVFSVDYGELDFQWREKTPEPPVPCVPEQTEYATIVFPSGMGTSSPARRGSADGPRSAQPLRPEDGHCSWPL
human PD-1 (NM_005018.2) over-expressed on cells: residues 25-288 of Q15116
antigen PD1 (coated, construct not stated): residues 25-170 of Q15116
PD1-his (Catalog Number 10377-H08H, Sino Biological Inc.): residues 25-167 of Q15116

Test [1] addresses antigen PD1 (coated, construct not stated) (UniProt Q15116). The experiment in a line: monoclonal scFv-phage ELISA on coated PD1 antigen. For orientation: ELISA stands for enzyme-linked immunosorbent assay.
The target of test [2] is cynoPD1. Kind of test: ELISA, 1 ug/ml.
Test [3] has as its target PD1-his (Catalog Number 10377-H08H, Sino Biological Inc.) (UniProt Q15116). Kind of test: monoclonal scFv-phage ELISA on coated PD1 antigen.
Test [4] has as its target human PD-1 (NM_005018.2) over-expressed on cells (human) (UniProt Q15116). Kind of test: flow cytometry on cells expressing PD-1, drawn table.
The target in test [5] is antigen PD1 (coated, construct not stated) (UniProt Q15116). The experiment in a line: scFv-phage ELISA of optimisation clones, OD490.
The target is the same in test [6]. Kind of test: specificity ELISA, 1 ug/ml, OD490.

B1: PD1-49A2(A/1H4) (antibody, V domains shown)
VH: QVQLVESGGGVVQPGRSLRLSCAASGFTFPIYAMHWVRQAPGKGLEWVAVISYDGAHKYYADSVKGRFTISRDNSKNTLYLQMNSLRAEDTAVYYCTTTTFDSWGQGTLVTVSS
VL: DIVMTQSPLSLPVTPGEAASISCRSSQSLLDSEDGNTYLDWYLQKPGQSPQLLIYTLSHRASGVPDRFSGSGSGTDFTLKISRVEAEDSGIYYCMQRVEFPYTFGQGTKLDIK
For the molecule B1, in test [1], the binding entry is on record as “binds”.

B2: PD1-49A2(A/2D7) (antibody, V domains shown)
VH: QVQLVESGGGVVQPGRSLRLSCAASGFTFKTYAMHWVRQAPGKGLEWVAVISYDGQHKYYADSVKGRFTISRDNSKNTLYLQMNSLRAEDTAVYYCTTTTFDSWGQGTLVTVSS
VL: DIVMTQTPLSLPVTPGEPASISCRSSQSLLDRDGGHTYVDWYLQKPGQSPRLLIYTLSHRALGVPDRFSGSGSGTDFTLKISRVEADNVGLYYCMQRIEFPFTFGQGTKVEIK
For the molecule B2, the binding result in test [1] is recorded as “binds”.

B3: PD1-52E8 (antibody, V domains shown)
VH: QVQLVQSGGNLVQPGRSLRLSCAASGFTFDDYAMHWVRQAPGKGLEWVSGISWNSGTPGYADSVQGRFTISRDNAKNSLYLQMNSLRAEDTAVYYCARGHNYLDSSYYDYWGQGTLVTVSS
VL: SYELTQPLSLSVAPGQTARITCSGDALSKEYSYWYQQKPGQAPVLVMYKDSERPSGIPERFSGSSSGTTVTLTISGVQAEDEADYYCQSVDSSDTSVVFGGGTKLTVL
Regarding B3, the binding result in test [2] and in test [3] was “binds” each time.

B4: PD1-74A01 (antibody, V domains shown)
VH: QVQLVESGGGVVQPGRSLRLSCAASGFTFSSYAMHWVRQAPGKGLEWVAVISYDGSNKYYADSVKGRFTISRDNSKNTLYLQMNSLRSEDTAVYYCVPTTFEYWGQGSQVTVSS
VL: DIVMTQTPLSLPVTPGEPASISCRSSQSLLDRGGGHTYLDWYLQKPGQSPQLLIYTLSHRASGVPDRFSGSGSGTDFTLKISRVEAEDVGIYYCMQRKEFPLTFGPGTKLEIK
For B4, the binding result in test [4] was “binds”.

B5: PD1-45D6(A/3H6) (antibody, V domains shown)
VH: QVQLVESGGGVVQPGRSLRLSCAASGFTFSSYAMHWVRQVPGKGLEWVAVISYDGNDKYYADSVKGRFTISRDNSKNTLYLQMNSLRAEDTAVYYCVPTTFEYWGQGSQVTVSS
VL: DIVMTQTPLSLPVTPGEAASISCRSSQSLLDSEDGNTYLDWYLQKPGQSPQLLIYTLSHRASGVPDRFSGSGSGTDFTLKISRVEAEDVGVYYCMQRVEFPFTFGQGTKLEIK
Regarding B5, the binding entry in test [1] was “binds”.

B6: PD1-49A2(A/2A11) (antibody, V domains shown)
VH: QVQLVESGGGVVQPGRSLRLSCAASGFTFRSYAMHWVRQAPGKGLEWVAVISYDGQDKYYADSVKGRFTISRDNSKNTLYLQMNSLRAEDTAVYYCTTTTFDSWGQGTLVTVSS
VL: DIVMTQTPLSLPVTPGEPASISCRSSQSLFDSDDGNTYLDWYLQKPGQSPRLLIYTLSHRALGVPDRFSGSGSGTDFTLKISRVAAEDVGLYYCLQRMGFPYTFGQGTKLEIK
On to B6, for which the binding entry in test [1] and in test [5] was “binds” throughout.

B7: PD1-45D6(A/3G1) (antibody, V domains shown)
VH: QVQLVESGGGVVQPGRSLRLSCAASGFTFSSYAMHWVRQVPGKGLEWVAVISYDGNDKYYADSVKGRFTISRDNSKNTLYLQMNSLRAEDTAVYYCVPTTFEYWGQGSQVTVSS
VL: DIVMTQTPLSLPVTPGEPASISCRSSQSLLDSEDGNTYLDWYLQKPGQSPQLLIYTLSHRASGVPDRFSGSGSGTDFTLEISRVEAEDVGVYYCMQRVEFPFTFGQGTKLDIK
As to B7, the binding result in test [1] is given as “binds”.

B8: PD1-45D6(A/5A6) (antibody, V domains shown)
VH: QVQLVESGGGVVQPGRSLRLSCAASGFTFRLYAMHWVRQAPGKGLEWVAVISHDGNDKYYADSVKGRFTISRDNSKNTLYLQMNSLRAEDTAVYYCVPTTFEYWGQGTLVTVSS
VL: DIVMTQTPLSLPVTPGEPASISCRSSQSLLDSEDGNTYLDWYLQKPGQSPQLLIYTLSHRASGVPDRFSGSGSGTDFTLKISRVEAEDVGVYYCMQRIDFPYTFGQGTKLDIK
In the case of B8, in test [1], the binding result is “binds”.

B9: PD1-41C9 (antibody, V domains shown)
VH: QMQLVESGGGVVQPGRSLRLSCAASGFTFSSYAMHWVRQAPGKGLEWVAVISYDGSNKYYADSVKGRFTISRDNSKNTLYLQMNRLRSEDTAVYYCTTTTFDSWGQGTLITVSS
VL: DIVMTQTPLSLPVTPGEAASISCRSSQSLLDSEDGNTYLDWYLQKPGQSPQLLIYTLSHRASGVPDRFSGSGSGTDFTLKISRVAAEDVGLYYCLQRMGFPYTFGQGTKLDIK
Turning to B9, the binding entry in test [2] and in test [6] was “binds” in each case.

B10: PD1-45D6(A/3H4) (antibody, V domains shown)
VH: QVQLVESGGGVVQPGRSLRLSCAASGFTFSSYAMHWVRQVPGKGLEWVAVISYDGNDKYYADSVKGRFTISRDNSKNTLYLQMNSLRAEDTAVYYCVPTTFEYWGQGSQVTVSS
VL: DIVMTQTPLSLPVTPGEPASISCRSSQSLFDSDDGNTYLDWYLQKPGQSPQLLIYTLSHRASGVSDRFSGSGSGTDFTLKISRVEAEDSGIYYCMQRVEFPFTFGQGTKLDIK
With B10, the binding entry in test [1] is given as “binds”.

B11: PD1-45D6(A/5C8) (antibody, V domains shown)
VH: QVQLVESGGGVVQPGRSLRLSCAASGFTFMRYAMHWVRQAPGKGLEWVAVISYDGNDKYYADSVKGRFTISRDNSKNTLYLQMNSLRAEDTAVYYCVPTTFEYWGQGTLVTVSS
VL: DIVMTQSPLSLPVTPGEPASISCRSSQSLLDSEDGNTYLDWYLQKPGQSPQLLIYTLSHRASGVPDRFSGSGSGTDFTLKISRVEAEDVGVYYCMQRVEFPFTFGQGTKLDIK
Consider B11, for which the binding entry in test [1] is reported as “binds”.

B12: PD1-45D6(A/5H9) (antibody, V domains shown)
VH: QVQLVESGGGVVQPGRSLRLSCAASGFTFWTYAMHWVRQAPGKGLEWVAVISYDGNDKYYADSVKGRFTISRDNSKNTLYLQMNSLRAEDTAVYYCVPTTFEYWGQGTLVTVSS
VL: DIVMTQTPLSLPVTPGEPASISCRSSQSLLDSDDGNTYLDWYLQKPGQSPQLLIYTLSHRASGVSDRFSGSGSGTDFTLEISRVEAEDVGVYYCMQRRDFPFTFGQGTKVEIK
Consider B12, for which, in test [1], the binding entry is recorded as “binds”.

B13: PD1-45D6(A/4D4) (antibody, V domains shown)
VH: QVQLVESGGGVVQPGRSLRLSCAASGFTFSSYAMHWVRQAPGKGLEWVAVISYDGNDKYYADSVKGRFTISRDNSKNTLYLQMNSLRAEDTAVYYCVPTTFEYWGQGTLVTVSS
VL: DIVMTQTPLSLPVTPGEPASISCRSSQSLLDSEDGNTYLDWYLQKPGQSPQLLIYTLSHRASGVPDRFSGSGSGTEFNLRISRVEAEDVGIYYCMQRVEFPFTFGQGTKVDIK
Regarding B13, in test [1], the binding entry is on record as “binds”.

B14: PD1-49A2(A/2B10) (antibody, V domains shown)
VH: QVQLVESGGGVVQPGRSLRLSCAASGFTFLVYAMHWVRQAPGKGLEWVAVISYDGSHKYYADSVKGRFTISRDNSKNTLYLQMNSLRAEDTAVYYCTTTTFDSWGQGTLVTVSS
VL: DIVMTQTPLSLPVTPGEPASISCRSSQSLLDSDDGNTYLDWYLQKPGQSPQLLIYTLSHRASGVPDRFSGSGSGTDFTLKISRVAAEDVGLYYCMQRVEFPFTFGQGTKLDIK
For the molecule B14, in test [1], the binding entry is reported as “binds”.

B15: PD1-45D6(A/4H6) (antibody, V domains shown)
VH: QVQLVESGGGVVQPGRSLRLSCAASGFTFSSYAMHWVRQAPGKGLEWVAVISYDGNDKYYADSVKGRFTISRDNSKNTLYLQMNSLRAEDTAVYYCVPTTFEYWGQGTLVTVSS
VL: DIVMTQTPLSLPVTPGEPASISCRSSQSLFDSDDGNTYLDWYLQKPGQSPQLLIYTLSHRASGVPDRFSGSGSGTDFTLKISRVEAEDVGLYYCMQRVEFPFTFGQGTKLEIK
As to B15, the binding entry in test [1] was “binds”.

B16: PD1-49A2(A/1F12) (antibody, V domains shown)
VH: QVQLVESGGGVVQPGRSLRLSCAASGFTFRNYAMHWVRQAPGKGLEWVAVISYDGQHKYYADSVKGRFTISRDNSKNTLYLQMNSLRAEDTAVYYCTTTTFDSWSQGTLVTVSS
VL: DIVMTQTPHSLPVTPGEPASISCRSSQSLLDSEDGNTYLDWYLQKPGQSPQLLIYTLSHRALGVPDRFSGSGSGTDFTLKISRVEAEDSGIYYCMQRIEFPYTFGQGTKLEIK
For the molecule B16, in test [1], the binding entry is listed as “binds”.

B17: PD1-45D6(A/5B12) (antibody, V domains shown)
VH: QVQLVESGGGVVQPGRSLRLSCAASGFTFSVYAMHWVRQAPGKGLEWVAVISYDGNDKYYADSVKGRFTISRDNSKNTLYLQMNSLRAEDTAVYYCVPTTFEYWGQGTLVTVSS
VL: DIVMTQTPLSLPVTPGEAASISCRSSQSLLDSEDGNTYLDWYLQKPGQSPQLLIYTLSHRASGVPDRFSGSGSGTDFTLKISRVEAEDVGIYYCMQRVEFPFTFGQGTKVEIK
Take B17: the binding entry in test [1] is on record as “binds”.

B18: PD1-45D6(A/4C9) (antibody, V domains shown)
VH: QVQLVESGGGVVQPGRSLRLSCAASGFTFSSYAMHWVRQAPGKGLEWVAVISYDGNDKYYADSVKGRFTISRDNSKNTLYLQMNSLRAEDTAVYYCVPTTFEYWGQGTLVTVSS
VL: DIVMTQTPLSLPVTPGEAASISCRSSQSLLDSEDGNTYLDWYLQKPGQSPQLLIYTLSHRASGVPDRFSGSGSGTDFTLKISRVAAEDVGIYYCMQRVEFPFTFGQGTKLEIK
Turning to B18, in test [1], the binding entry is reported as “binds”.

B19: PD1-74H12 (antibody, V domains shown)
VH: QVQLVESGGGVVQPGRSLRLSCAASGFTFSSYAMHWVRQAPGKGLEWVAVISYDGSNKYYADSVKGRFTISRDNSKNMLYLEMNSLRAEDTAVYYCVPTTFEYWGQGSQVTVSS
VL: DIVMTQTPLSLSVTPGEPASISCRSSQSLLDSDDGNTYLDWYLQKPGQSPQLLIYTLSHRASGVPDRFSGRGSHTDFTLTISSVEAEDVGVYYCMQRIHFPLTFGQGTRLEIK
For B19, the binding entry in test [4] is listed as “binds”.

B20: PD1-45D6(A/4C1) (antibody, V domains shown)
VH: QVQLVESGGGVVQPGRSLRLSCAASGFTFSSYAMHWVRQAPGKGLEWVAVISYDGNDKYYADSVKGRFTISRDNSKNTLYLQMNSLRAEDTAVYYCVPTTFEYWGQGTLVTVSS
VL: DIVMTQTPLSLPVTPGEPASISCRSSQSLLDSDDGNTYLDWYLQKPGQSPQLLIYTLSHRASGVPDRFSGSGSGTDFTLKISRVEAEDVGIYYCMQRVEFPFTFGQGTKLDIK
Regarding B20, the binding result in test [1] is given as “binds”.

Values taken from patent US20190248900A1.
